Tested on: liver gene expression (lipid metabolism and fatty acid transport genes)
Assay: Rat CDHFD+NaNO2 NASH model: liver whole transcriptome RNAseq (DEGs)
Type: in vivo, male Wistar rats
Settings: CDHFD+NaNO2 rats, 8 weeks; Compound 1 3 mg/kg, Compound 2 25 mg/kg; vs vehicle NASH control; adjusted p-value <0.01, fold-change ≥1.5-fold
Method: Animal handling: After arrival, the rats were left for a 2-week acclimation period, during which they were accustomed to the animal facility staff and trained on the procedure of oral gavage. […] Rats were then treated with test compounds for an additional 8 weeks while on CDHFD. […] Final Sacrifice: Half of the animals of each treatment group were terminated on day 84. The other half of the animals in each group were terminated on the following day, day 85. On the day of sacrifice the animals were fasted for 2 hours and received a final treatment with the respective test substance. After the final compound treatment, the animals had no more access to food until sacrifice. At 4 hours after the last administration all animals were sacrificed and livers were sampled for further analysis. Sampling and analysis: Small liver pieces were harvested into RNAlater (Thermo Fisher Scientific Dreieich Germany) and stored at −20° C. prior to RNA sequencing (RNAseq) at MedGenome Inc. RNAseq analysis was performed on liver tissue by Illumina sequencing using standard methodologies. Briefly, RNAseq libraries (n=5 per group) were generated using Illumina Truseq stranded mRNA kits and sequencing was performed on a NovaSeq 6000 sequencer. Alignment was performed using STAR (v2.7.3a) aligner and reads mapping to ribosomal and mitochondrial genome were removed prior to alignment. Raw read counts were estimated using HTSeq (v0.11.1) and normalized using DESeq2 (v2.22.2). Differentially expressed genes (DEGs) were determined using DESeq2 (R Bioconductor package). RESULTS: The choline-deficient, high-fat diet (CDHFD) is commonly used to induce a NASH-like phenotype in rodent species. In addition, induction of liver fibrosis by intraperitoneal (IP) injections of sodium nitrite (NaNO2) in CDHFD rats can be used to model advanced NASH disease. […] In this model, male Wistar rats were fed a CDHFD for 4 weeks to induce disease prior to daily oral drug and triweekly IP NaNO2 treatment.

## Cn1cc(C(=O)O)c2ccc(N3CCC(OCc4c(-c5c(Cl)cccc5Cl)noc4C4CC4)CC3)cc21 [Compound 1]
  Down DEGs: 118
  Total DEGs: 309
  Up DEGs: 191

## COC1CCN(c2ncc(OC/C(=C/F)CN)cn2)CC1 [Compound 2]
  Down DEGs: 641
  Up DEGs: 206
